# According to PubChem BioAssay AID2685 (National Center for Advancing Translational Sciences (NCATS), 2010):
# This is one part of the list. Shown are side measurements of this screen, not its main read-out; they come without a call. Most of these compounds were active or inconclusive in the main read-out, so they are no random draw. The note in brackets gives the kind of curve behind each potency; many fits are weak.
# Assay: qHTS Assay for Lipid Storage Modulators in Drosophila S3 Cells;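 on cell number change: cells counted by Cell Tracker Red CMTPX staining in the red channel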
# Conditions: BODIPY lipid droplet fluorescence, 18-24 h; for cell number change: measured here: cell count max response, cells fed with added oleic acid
# How it was run: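 Laser-scanning cytometry quantifies lipid droplet accumulation (500–530 nm total intensity; droplet/cell object ratio) in oleic acid-fed (400 uM added) Drosophila S3 cells treated with a concentration series. 20 uM Triacsin C defined 100% inhibition.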
# [1] = measured here: lipid fluorescence (Fed channel) AC50, cells fed with added oleic acid
# [2] = measured here: cell number channel AC50, cells fed with added oleic acid
Structure (SMILES),cell number change,AC50 [1],AC50 [2]
O=c1c2ccccc2nc(/C=C/c2c[nH]c3ccccc23)n1-c1ccc([N+](=O)[O-])cc1,19.5%,"29.1 µM [rising, single point]",
CCOC(=O)CN/C=C(\C#N)c1ccc(F)cc1,-16.2%,"0.184 µM [falling, full curve]",
O=C(OCC(=O)c1ccc[nH]1)c1ccc(Br)cc1,3.12%,,
Cc1cc(C(=O)CCC(=O)N(C)CC(=O)Nc2ccc(OC(F)(F)F)cc2)c(C)s1,,,"1.46 µM [rising, partial curve]"
CSCCC(NS(=O)(=O)c1ccc(C)cc1)C(=O)N1CCCCCCC1 (stereo unspecified),-36.1%,"29.1 µM [falling, single point]","18.4 µM [falling, single point]"
CCCCCOc1ccc(Br)cc1CSC(=N)N,-28.1%,"6.51 µM [falling, single point]",
Cc1cc(C(F)(F)F)nc(NCc2ccc(F)cc2)n1,-31.3%,,"0.731 µM [falling, full curve]"
CCC(=O)c1ccc(OCC(=O)NC2CCCC2)cc1,-5.88%,"2.91 µM [rising, single point]",
CN(Cc1ccc(OC(F)F)cc1)C(=O)C1CCN(S(=O)(=O)c2ccc3c(c2)OCCO3)CC1,42.1%,"29.1 µM [rising, single point]","29.1 µM [rising, single point]"
O=[N+]([O-])c1ccc2nc(NS(=O)(=O)c3ccc(F)cc3)sc2c1,18.5%,,"0.82 µM [rising, full curve, poor fit]"
COc1cc(SC)ccc1C(=O)OC1CCOC1=O (stereo unspecified),-13.1%,"3.26 µM [falling, single point]",
COc1ccccc1CNC(=O)CNC(=O)c1sc2ccccc2c1Cl,-49.5%,,"2.06 µM [falling, partial curve, poor fit]"
NS(=O)(=O)c1ccc(CNC(=O)c2ccc(Br)o2)cc1,-18.6%,"18.4 µM [falling, partial curve, poor fit]",
O=C(O)c1ccc(COc2ccc3ccccc3c2/C=C2/NC(=O)N(Cc3ccc(F)cc3)C2=O)cc1,,"7.31 µM [rising, partial curve]","0.0058 µM [rising, full curve, poor fit]"
CCc1ccccc1NC(=O)CCS(=O)(=O)c1ccc2c(c1)CCCN2C(C)=O,-36.5%,"23.1 µM [falling, single point]","23.1 µM [falling, single point]"
CC(C)(C)N(CC(=O)NC1CCCCC1)C(=O)CS(=O)CC(=O)Nc1ccc(F)cc1 (stereo unspecified),4.62%,"29.1 µM [rising, single point]",
O=C(NCc1ccccc1F)C1CCCN(C(=O)Nc2ccccc2)C1 (stereo unspecified),,"29.1 µM [rising, partial curve, poor fit]",
Cc1cc(C)cc(NC(=O)CSc2nc3ccncc3[nH]2)c1,-23.7%,,"0.146 µM [falling, full curve, poor fit]"
COc1ccc(OC)c(Nc2nc(-c3ccc(O)c(O)c3)cs2)c1,,"0.92 µM [rising, partial curve]",
CC(C)C[C@H](NC(=O)c1nc[nH]c1C(=O)NC1CCN(C(=O)OC(C)(C)C)CC1)C(=O)OCc1ccccc1,-51.3%,"29.1 µM [falling, single point]","32.6 µM [falling, single point]"

Structure (SMILES),cell number change,AC50 [1],AC50 [2]
O=C(N/N=C/c1ccc(Cl)c(Cl)c1)c1ccc2nc[nH]c2c1,,"0.58 µM [rising, single point]",
COc1ccc(-c2nc(NC(=O)Cn3ccc(C(F)(F)F)n3)sc2C)cc1,,"8.2 µM [rising, partial curve]","0.651 µM [rising, single point]"
CC(C)C[C@H](NC(=O)c1nc[nH]c1C(=O)NCc1ccc(CNC(=O)OC(C)(C)C)cc1)C(=O)OCc1ccccc1,73.1%,"2.06 µM [falling, full curve]","29.1 µM [rising, single point]"
C=CCSc1nsc(NC(=O)Nc2ccc(F)cc2)n1,,"6.51 µM [falling, partial curve]",
CC(C)(C)C(=O)NC(=S)Nc1ccc(Cc2ccncc2)cc1,-22.5%,,
CCOC(=O)C(C)Sc1nc(-c2ccco2)cc(C(F)(F)F)c1C#N (stereo unspecified),-17.5%,,
CCN(C(=O)CSc1n[nH]c(-c2cc(Cl)ccc2OC)n1)C1CCS(=O)(=O)C1 (stereo unspecified),18.8%,"0.58 µM [rising, partial curve, poor fit]",
C#CCOC(=O)C(NC(=O)c1ccccc1)=C(C)C,58.9%,"3.26 µM [rising, partial curve]","5.8 µM [rising, partial curve, poor fit]"
CC(C)OCCCNc1ccc(N2C(=O)CCCC2=O)cc1[N+](=O)[O-],12.2%,"0.00517 µM [falling, full curve, poor fit]",
COc1ccccc1OCCCC(=O)Nc1nccs1,-7.98%,"0.731 µM [falling, single point]",
O=C1COc2ccc(C(=O)COC(=O)Cc3c(F)cccc3Cl)cc2N1,13.7%,,
COc1ccc(NC(=O)NCc2ccc(Cl)cc2)cc1,29.8%,"0.58 µM [rising, single point]","0.231 µM [rising, full curve, poor fit]"
CCCN(CC(=O)Nc1ccccc1C)C(=O)c1cc(=O)[nH]c2ccccc12,22.8%,"14.6 µM [rising, partial curve, poor fit]",
Cn1cc(CCCC(=O)NCc2ccc(F)cc2)c2ccccc21,-18.3%,"29.1 µM [falling, single point]",
O=C1c2ccccc2C(=O)N1CC(=O)N1c2ccccc2Sc2ccccc21,-4.9%,"0.116 µM [falling, full curve, poor fit]","0.0058 µM [falling, full curve, poor fit]"
COc1ccc(C(=O)N2CCN(S(=O)(=O)c3ccc(Cl)cc3)CC2)cc1OC,19.8%,,
COc1cc(N)c(Cl)cc1C(=O)OCC(=O)c1ccc2c(c1)NC(=O)CO2,19.8%,,"0.461 µM [rising, full curve, poor fit]"
CC(NCCC(c1ccccc1)c1ccccc1)c1ccccc1 (stereo unspecified),-73.9%,"18.4 µM [falling, single point]","20.6 µM [falling, partial curve]"
CCc1ccc2[nH]c3nc(SCc4nnc(-c5ccccc5)o4)nnc3c2c1,-20.7%,"18.4 µM [falling, partial curve]",
Nc1ncnc(Nc2ccc(F)cc2)n1,-4.7%,,

# Sorted by formula weight (low to high): some entries from above
Structure (SMILES),cell number change,AC50 [1],AC50 [2]
CC(NCCC(c1ccccc1)c1ccccc1)c1ccccc1 (stereo unspecified),-73.9%,"18.4 µM [falling, single point]","20.6 µM [falling, partial curve]"
CC(C)OCCCNc1ccc(N2C(=O)CCCC2=O)cc1[N+](=O)[O-],12.2%,"0.00517 µM [falling, full curve, poor fit]",
CC(C)C[C@H](NC(=O)c1nc[nH]c1C(=O)NC1CCN(C(=O)OC(C)(C)C)CC1)C(=O)OCc1ccccc1,-51.3%,"29.1 µM [falling, single point]","32.6 µM [falling, single point]"

# The listing continues.

Structure (SMILES),cell number change,AC50 [1],AC50 [2]
Cc1cc([N+](=O)[O-])nn1CCCC(=O)Nc1c(C)n(C)n(-c2ccccc2)c1=O,-23.9%,"0.517 µM [falling, partial curve, poor fit]",
Cc1ccccc1SCCNC(=O)CCc1ccccc1,72%,"6.51 µM [rising, single point]","4.11 µM [rising, full curve]"
Cc1ccc(S(=O)(=O)c2ncccc2[N+](=O)[O-])cc1,-65.4%,"8.2 µM [falling, partial curve]","8.2 µM [falling, partial curve]"
COc1ccc(NC(=O)C2CC(=O)N(c3ccccc3C)C2)c(OC)c1 (stereo unspecified),-19.7%,"6.31 µM [falling, single point]",
Cn1nc(C(=O)Nc2ccc(Cl)c(S(=O)(=O)N3CCOCC3)c2)c2ccccc2c1=O,-28.8%,"0.00461 µM [falling, full curve, poor fit]","0.082 µM [falling, full curve, poor fit]"
O=C(Nc1ccc(Cl)cc1C(=O)NCCN1CCOCC1)c1ccc(Cl)cc1Cl,29.1%,"23.1 µM [rising, single point]",
Cc1cc(C)c(S(=O)(=O)N(CC(=O)N2CCCC2)C2CCCCC2)c(C)c1,-13.9%,,
O=C(O)c1ccc(Oc2ccc(S(=O)(=O)c3ccc(C(=O)O)c(C(=O)O)c3)cc2)cc1,8.2%,,
O=C(CCn1cccc1)NC1CCCc2ccccc21 (stereo unspecified),10.6%,"32.6 µM [falling, single point]",
CC(C)(C)c1ccc(C(=O)NCC(=O)NCC(C)(C)N2CCOCC2)cc1,24.6%,,
CC(C)CC(=O)Nc1ccccc1N1CCN(C(=O)c2ccccc2)CC1,-2.63%,"2.06 µM [rising, partial curve]",
O=C(CNC(=O)c1cccnc1)N=Nc1c(O)[nH]c2c(Br)cc(Br)cc12,6.49%,"5.17 µM [falling, single point]",
COc1ccc(OC)c(N2C(=O)C(Cl)=C(N3CCCCC3)C2=O)c1,3.63%,"14.6 µM [rising, single point]",
COc1cc(CNn2c(C)n[nH]c2=S)cc(Cl)c1OCc1ccc(F)cc1,-47%,,
CCN(CC)N=Nc1ccc(S(=O)(=O)Nc2c(C)n(C)n(-c3ccccc3)c2=O)cc1,-18.2%,,
CCN1CCN(Cc2ccc(NC(=O)c3cc(NC(=O)c4cc5cccc(OC)c5o4)cc(OC)c3)cc2C(F)(F)F)CC1,-16.1%,,
C/C(=N\NC(=O)C(=O)Nc1c(C)n(C)n(-c2ccccc2)c1=O)c1ccncc1,-12%,,
Cc1ccc(NS(=O)(=O)c2cccc(C(=O)N3CCN(c4ncccn4)CC3)c2)cc1,2.8%,"0.58 µM [rising, single point]",
CC1=NNC(=O)C1CC(=O)N/N=C(\C)c1ccco1 (stereo unspecified),,"4.11 µM [falling, single point]",
